# Test results taken from PubChem BioAssay AID504834 (National Center for Advancing Translational Sciences (NCATS), 2011).
# Out of some 320,000 compounds screened, about 22,000 (6.9%) were called active. Inconclusive means that the source gave no clear call. Such entries were picked first, then a sample of the others. Calls follow the shape of the dose curve; as a rule, active = well fitted inhibition curve with a large enough effect; inconclusive = small, poorly fitted or top-dose-only effect, or another doubt; inactive = no such curve, though single readings can be large or run the other way. A potency beside an inconclusive call is a rough fit, not a confirmed value.
# Assay: Primary qHTS for delayed death inhibitors of the malarial parasite plastid, 96 hour incubation
# Conditions: P. falciparum luciferase reporter growth; series mostly up to 28.7 µM; activity change, negative = inhibition: at the top concentration
# How it was run: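 Infected RBCs, 2% Hct / 0.05% parasitemia final; luciferase-reporter P. falciparum; cpd 96 h, 37 C, 5% CO2; luciferase detection reagent; luminescence.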
# % is scaled to controls: 0 for no effect and ±100 for the full control effect; potency is read from the fitted curve at half-maximal effect.
SMILES,Potency,"activity change, negative = inhibition"
COc1cnc(-c2ccccn2)nc1Oc1c(C)cccc1C,active: 0.208 µM,
O=C(Nc1cccc(Cl)c1)c1ccc(NCC2CCCO2)c([N+](=O)[O-])c1 (stereo not drawn),"inconclusive: 11.7 µM [inhibitor, single point]",
Cn1nnnc1Sc1ncnc2scc(-c3cccc(S(C)(=O)=O)c3)c12,"inconclusive: 3.7 µM [inhibitor, partial curve]",
COCCSc1nnc(NC(=O)C2CC(=O)N(c3ccc(Cl)cc3)C2)s1 (stereo not drawn),"inconclusive: 9.28 µM [inhibitor, single point]",
C=CCOc1ccc(C(=O)n2cc(C(=O)OC)c3ccccc32)cc1,"inconclusive: 16.5 µM [inhibitor, single point]",
CC1(S(=O)(=O)O)CC(=O)c2ccccc2C1=O (stereo not drawn),active: 1.65 µM,
CSc1cc(CS(=O)(=O)c2ccccc2)nc(-c2ccccc2)n1,,inactive: 46.4%
O=C(Nc1nc2c(s1)C(=O)CCC2)c1ccccc1,"inconclusive: 16.5 µM [inhibitor, partial curve, poor fit]",
COc1cccc(OC)c1C(=O)Nc1nnc(-c2ccc(F)cc2)s1,"inconclusive: 18.5 µM [inhibitor, single point]",
CCCCN(Cc1nc2ccccc2c(=O)[nH]1)C(=O)c1nn(C)c(=O)c2ccccc12,"inconclusive: 11.7 µM [inhibitor, single point]",
CCOc1ccc(-c2nnn(CC(=O)c3cc(OC)ccc3OC)n2)cc1,"inconclusive: 18.5 µM [inhibitor, single point]",
CCC(C)c1c(O)nc(SCC(=O)c2ccccc2)[nH]c1=O (stereo not drawn),"inconclusive: 10.4 µM [inhibitor, single point]",
CC(C)OC(=O)c1cc2c(ccn2C)n1CC(=O)N(Cc1ccccc1)c1ccc(F)cc1,,inactive: 48%
O=C(/C=C\N1CCOCC1)c1ccc(Br)cc1,"inconclusive: 0.329 µM [inhibitor, full curve, poor fit]",
Cc1cccc(-c2noc(Cc3ccc(Cl)cc3)n2)c1,"inconclusive: 2.94 µM [inhibitor, single point]",
C=C(C)C1Cc2c(C)nn(-c3ccccn3)c2C1 (stereo not drawn),"inconclusive: 10.4 µM [inhibitor, single point]",
CCOc1ccccc1NC(=O)Cn1c(=O)c(OCC)nc2cnccc21,"inconclusive: 18.5 µM [inhibitor, single point]",
CCOc1cc(/C=C2\SC(=N)N(c3nonc3N)C2=O)ccc1OCCN1CCOCC1,"inconclusive: 0.37 µM [inhibitor, full curve, poor fit]",
Cc1ccc(Oc2ncccc2N)c2c1CCC2,,inactive: 63.7%
Cc1ccccc1-n1c(-c2ccc3ccccc3n2)n[nH]c1=S,"inconclusive: 10.4 µM [inhibitor, single point]",
Cc1ccc(CN2CCCN(Cc3c(C)cc(C)cc3C)S2(=O)=O)cc1,"inconclusive: 10.4 µM [inhibitor, single point]",
O=C(O)[C@H]1CCCN1S(=O)(=O)c1cccc2cccnc12,,inactive: 22.7%
COC(=O)c1c(C(=O)OC)c(-c2ccccc2)n2c1CS(=O)(=O)C2,"inconclusive: 1.65 µM [inhibitor, partial curve, poor fit]",
O=C1N=C2SCCN2C(=O)C1Cc1ccc(Cl)cc1 (stereo not drawn),,inactive: -8.74%
CN(C)C(Cc1ccccc1)C(=O)c1c[nH]c2ccccc12 (stereo not drawn),"inconclusive: 9.28 µM [inhibitor, single point]",

SMILES,Potency,"activity change, negative = inhibition"
CC(C)Sc1oc(-c2ccco2)nc1S(=O)(=O)c1ccc(F)cc1,active: 14.7 µM,
Cn1cc(CN2CCC(CO)(CCCc3ccccc3)CC2)c(-c2ccccc2)n1,,inactive: -0.894%
O=C(Nc1cccnc1)c1coc(=O)c2ccccc12,"inconclusive: 0.165 µM [inhibitor, full curve, poor fit]",
CCOC(=O)C1CCN(C(=O)CN(c2cc(Cl)ccc2OC)S(=O)(=O)c2ccccc2)CC1,"inconclusive: 13.1 µM [inhibitor, partial curve]",
CCCOc1cccc(NC(=O)OC2CCN(C)CC2)c1,"inconclusive: 18.5 µM [inhibitor, single point]",
COc1ccc(C2CC(=O)NC3=C2C(=O)CCC3)cc1Cl (stereo not drawn),"inconclusive: 13.1 µM [inhibitor, partial curve, poor fit]",
COc1ccc(N2CCN(C(=O)CNC(=O)c3cn(-c4ccccc4OC)c(=O)c4ccccc34)CC2)cc1,"inconclusive: 18.5 µM [inhibitor, single point]",
O=c1cc(CSc2n[nH]c(-c3ccncc3)n2)nc2sccn12,,inactive: 15%
CCC1CCCCN1Cc1ccc(OC)c(C)c1 (stereo not drawn),"inconclusive: 18.5 µM [inhibitor, single point]",
O=Cc1ccc(Oc2cc(-c3ccccc3)nc(-c3ccccc3)n2)cc1,active: 13.1 µM,
CC(=O)c1ccc(O)c(CSC2=NCCS2)c1,,inactive: 33.4%
O=C(NNC1=C(C(=O)C(F)(F)F)CCC1)c1ccncc1,"inconclusive: 18.5 µM [inhibitor, single point]",
COc1c(C)cccc1C(=O)NC(=S)Nc1cccc2nsnc12,"inconclusive: 13.1 µM [inhibitor, single point]",
CC(=O)OCC1=C(C(=O)O)N2C(=O)C(NC(=O)c3ccc(COc4ccc(Cl)cc4)o3)C2SC1 (stereo not drawn),,inactive: 74.4%
Cc1ccc(OCCNCc2ccccc2)c(C)c1,"inconclusive: 18.5 µM [inhibitor, single point]",
Cc1cccc(Cn2c(C(C)O)nc3ccccc32)c1 (stereo not drawn),"inconclusive: 18.5 µM [inhibitor, single point]",
CN(CC(=O)Nc1c(Cl)cccc1Cl)C(=O)c1cc(-c2cccs2)nn1-c1ccccc1,,inactive: -6.07%
CCOc1ccc(C2/C(=C(\O)c3ccc(OC)c(OC)c3)C(=O)C(=O)N2c2cc(C)on2)cc1OC (stereo not drawn),,inactive: 2.41%
O=C(Nc1ccc2c(c1)CCC2)c1cc(S(=O)(=O)Nc2ccc(F)cc2)c(Cl)cc1Cl,"inconclusive: 1.17 µM [inhibitor, full curve, poor fit]",
COc1ccc(CC(=O)NCC2CCCN(Cc3ccccc3Cl)C2)cc1 (stereo not drawn),,inactive: 184%
CCCn1nnc(NC(=O)COc2ccc(C3CCCCC3)cc2)n1,"inconclusive: 8.28 µM [inhibitor, partial curve]",
CCOC(=O)c1cc(CC)sc1NC(=O)CN1C(=O)C(=O)N(CC(C)C)C1=O,,inactive: 5.15%
COc1ccc(S(=O)(=O)N2CCOC23CCN(C(=O)c2c(F)cccc2Cl)CC3)cc1,"inconclusive: 4.65 µM [inhibitor, partial curve]",
O=C(CSc1nc2ccccc2c(=O)n1CC1CCCO1)Nc1ccccc1 (stereo not drawn),"inconclusive: 5.22 µM [inhibitor, partial curve, poor fit]",
O=C(NCCN1CCCC1=O)C1CCC(=O)N(CCc2cccc(F)c2)C1 (stereo not drawn),active: 13.1 µM,

# Five structures out of the list, sorted by molar mass, low to high:
SMILES,Potency,"activity change, negative = inhibition"
CCC1CCCCN1Cc1ccc(OC)c(C)c1 (stereo not drawn),"inconclusive: 18.5 µM [inhibitor, single point]",
O=C(Nc1cccnc1)c1coc(=O)c2ccccc12,"inconclusive: 0.165 µM [inhibitor, full curve, poor fit]",
O=C(NCCN1CCCC1=O)C1CCC(=O)N(CCc2cccc(F)c2)C1 (stereo not drawn),active: 13.1 µM,
CCOC(=O)c1cc(CC)sc1NC(=O)CN1C(=O)C(=O)N(CC(C)C)C1=O,,inactive: 5.15%
CCOc1ccc(C2/C(=C(\O)c3ccc(OC)c(OC)c3)C(=O)C(=O)N2c2cc(C)on2)cc1OC (stereo not drawn),,inactive: 2.41%

# Following part.

SMILES,Potency,"activity change, negative = inhibition"
Cc1cc(/C=N\NC(=O)COc2cccc3cccnc23)c(C)n1-c1ccc(Br)cc1,active: 2.33 µM,
O=C(Cc1ccccc1)c1nc2ccccc2s1,"inconclusive: 18.5 µM [inhibitor, single point]",
CCCCn1c(N)c(N(CC(C)C)C(=O)c2ccc(N3C(=O)CCC3=O)cc2)c(=O)[nH]c1=O,,inactive: 10.3%
Cc1c(C)n(C)c2ccc(C(=O)NCCCN(C)C3CCCCC3)cc12,"inconclusive: 11.7 µM [inhibitor, single point]",
COc1ccccc1-n1c(SCC(=O)NC2CC2)nc2ccccc2c1=O,"inconclusive: 18.5 µM [inhibitor, single point]",
Fc1ccc(Nc2nc(-c3ccncc3)nc3ccccc23)cc1,"inconclusive: 2.62 µM [inhibitor, full curve]",
Cc1ccc(S(=O)(=O)N(C)C)cc1NC(=O)Nc1ccccc1,,inactive: 16.8%
CN(C)c1ccc(C2N(C)C(=O)c3ccccc3N2C)cc1 (stereo not drawn),,inactive: 0%
COc1cc(Br)cc2cc(C(=O)N3CCOCC3)c(=O)oc12,active: 3.29 µM,
CN(C)C(=O)N1CCC(C(=O)NC2CCCCCCC2)CC1,"inconclusive: 0.185 µM [inhibitor, full curve, poor fit]",
CCn1cc(CNC(=O)c2ccc3nc(Cc4ccc(OC)cc4)oc3c2)cn1,"inconclusive: 14.7 µM [inhibitor, partial curve, poor fit]",
CC(C)(C)OC(=O)NCCCC[C@H](NC(=O)c1[nH]cnc1C(=O)Nc1ccccc1)C(=O)OC(C)(C)C,active: 5.22 µM,
Cc1ccc(NC2=C(Cl)C(=O)OC2NC(=O)c2ccccc2)cc1 (stereo not drawn),active: 1.04 µM,
O=S(=O)(Nc1nc2ccccc2nc1NCC1CCCO1)c1ccccc1 (stereo not drawn),,inactive: 14.8%
Cc1ccc(C)c(N2N=C(C(=O)OCc3nnc(-c4cccs4)o3)CCC2=O)c1,,inactive: 12.5%
COc1cc(/C=C/C(=O)OCC(=O)NC(=O)NC2CCCCC2)ccc1OC(F)F,,inactive: 6.54%
CCOC(=O)c1nnc2cc(-c3ccc(Br)cc3)nn2c1C,"inconclusive: 11.7 µM [inhibitor, partial curve, poor fit]",
COc1ccccc1C(=O)Nc1c(C(=O)N2CCN(C)CC2)oc2ccccc12,,inactive: -2.04%
CC1(C)NC(=O)N(CC(=O)OCC(=O)NC(=O)c2ccccc2)C1=O,,inactive: 0.563%
COC(=O)C1CCN(C(=O)Nc2ccccc2)CC1,,inactive: 6.27%
C=CCOc1ccc(/C=C\c2nc(O)c([N+](=O)[O-])c(=O)[nH]2)cc1OC,"inconclusive: 16.5 µM [inhibitor, partial curve, poor fit]",
CC(=O)N1CC(C)Sc2ccc(S(=O)(=O)NC(C)c3ccccc3)cc21 (stereo not drawn),active: 13.1 µM,
O=C1NC(=Nc2ccc(O)cc2)S/C1=C\C=C\c1ccco1,"inconclusive: 1.47 µM [inhibitor, full curve]",
